According to the supplement of paper PMC3334620:
The full ranking holds about 33,000 sequences; the median of “E-score (-0.5 to 0.5)” is about -0.015, and the highest 2% start at about 0.3. Some of the results follow.

Target: T1, Abf1 (UniProt P14164)
T1 sequence: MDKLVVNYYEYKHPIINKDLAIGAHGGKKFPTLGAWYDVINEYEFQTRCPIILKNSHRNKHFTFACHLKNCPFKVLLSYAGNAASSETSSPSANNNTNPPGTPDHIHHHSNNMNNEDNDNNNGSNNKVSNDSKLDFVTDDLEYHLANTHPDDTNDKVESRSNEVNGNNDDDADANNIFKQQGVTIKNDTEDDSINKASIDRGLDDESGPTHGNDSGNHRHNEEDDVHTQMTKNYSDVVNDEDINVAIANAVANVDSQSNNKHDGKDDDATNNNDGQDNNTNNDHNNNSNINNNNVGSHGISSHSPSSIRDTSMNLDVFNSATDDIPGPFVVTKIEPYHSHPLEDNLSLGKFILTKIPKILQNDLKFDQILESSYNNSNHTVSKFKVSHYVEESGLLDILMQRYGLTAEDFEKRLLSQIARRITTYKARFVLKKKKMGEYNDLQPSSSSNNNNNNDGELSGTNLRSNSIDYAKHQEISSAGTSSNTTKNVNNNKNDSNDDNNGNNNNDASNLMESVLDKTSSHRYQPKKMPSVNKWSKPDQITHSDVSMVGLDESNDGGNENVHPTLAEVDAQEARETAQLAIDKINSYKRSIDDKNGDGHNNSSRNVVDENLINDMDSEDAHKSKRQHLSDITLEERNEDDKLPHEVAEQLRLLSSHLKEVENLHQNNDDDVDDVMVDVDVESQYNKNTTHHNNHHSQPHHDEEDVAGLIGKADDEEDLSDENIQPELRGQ
Assay: PBM E-score (8-mer binding enrichment) (E-score (-0.5 to 0.5)); higher = stronger / more preferred TF binding
Conditions: protein concentration: 200 nM; construct: GST-full length
Outline: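 PURExpress in vitro transcription/translation supplied GST-tagged yeast transcription factors, either full-length or DNA-binding domain. Applied at about 100-200 nM to universal all-10-mer Agilent arrays double-stranded by primer extension, the bound protein was detected with fluorescent anti-GST. E-scores, modified Wilcoxon-Mann-Whitney statistics, were given by the Universal PBM Analysis Suite to ungapped eight-base words pooled with their reverse complements after masliner normalisation.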

Row | Sequence | PBM E-score
1 | ACCTTGGA | -0.145
2 | AGAGAGTG | -0.11
3 | CTGGATAA | 0.0803
4 | ACTTATGA | -0.00024
5 | GCTTTTTA | 0.0686
6 | ACGTGAGA | 0.128
7 | AGGCCCCC | -0.451
8 | GTTCGATA | -0.00794
9 | TAAGTCGA | -0.0778
10 | ATCCGGGC | -0.197
11 | AATCCCCG | 0.127
12 | AGTTCGAG | 0.0367
13 | AAATTCAC | 0.0554
14 | GGGCGCAA | -0.0456
15 | GGATTATA | 0.0832
16 | AACGTCAC | 0.238
17 | ATGATCCC | -0.116
18 | CACCGAAG | -0.0733
19 | GATAAATA | 0.257
20 | GGCTAAAC | -0.137
21 | TGGTTGAA | -0.141
22 | CGTAACAG | -0.194

Shown in markdown: entries from further up

| Row | Sequence | PBM E-score |
| --- | --- | --- |
| 12 | AGTTCGAG | 0.0367 |
| 13 | AAATTCAC | 0.0554 |
| 14 | GGGCGCAA | -0.0456 |
| 15 | GGATTATA | 0.0832 |
| 16 | AACGTCAC | 0.238 |
| 17 | ATGATCCC | -0.116 |

Next part

Row | Sequence | PBM E-score
23 | ACGGGGAG | -0.203
24 | ATTCAAAG | 0.00432
25 | CGCGGGTC | 0.0359
26 | ATCATGCG | 0.123
27 | ATCCTACA | -0.0536
28 | CGCAAGGC | -0.172
29 | CGGAGCAC | 0.0628
30 | CAGACCTA | -0.0809
31 | AACTCCGC | -0.212
32 | CAACGACA | 0.208
33 | CCTTAGTA | -0.0951
34 | CAACCAAG | 0.0714
35 | CGGGGGCA | -0.258
36 | CAAAAACG | 0.157
37 | CTCGAAAA | -0.109
38 | AAACCCTA | -0.0584
39 | ACCTCTGG | -0.129
40 | CAGACCCC | -0.328
41 | ACATGAGC | -0.102
42 | GAACGATA | 0.301
43 | GACGAATC | 0.246
44 | AGTAACAG | 0.0121

Row | Sequence | PBM E-score
45 | CGCTCATA | -0.0325
46 | AGATACCC | 0.00447
47 | AAGCCCGG | -0.206
48 | GGATCACA | 0.00896
49 | AGAGATGG | -0.0916
50 | ACAAATCA | 0.177
51 | GTGATAAC | 0.371
52 | TAGAGAGA | 0.0331
53 | CCCCAGGG | -0.311
54 | CTCCAACC | -0.0598
55 | CGGTTCTA | 0.119
56 | ATGCCCAC | -0.0381
57 | CAATTGCC | -0.0157
58 | GCGTCGCC | -0.0875
59 | CACCGCCA | -0.245
60 | CGCACTGC | -0.0546
61 | AAATTTAC | 0.0881
62 | GAAAAACC | -0.0134
63 | CTCGGTGC | -0.104
64 | AACCATCG | 0.0263
65 | AGCTCAGC | -0.164
66 | AAGCGGGG | -0.227

Row | Sequence | PBM E-score
67 | CGTTTAAG | 0.183
68 | ACGCAGGG | -0.137
69 | TACGCCGA | -0.076
70 | GGTACCGA | -0.14
71 | CACAGCTG | -0.0915
72 | CTCACGGC | 0.142
73 | ATTGTACC | 0.0665
74 | AGTCTTAG | -0.112
75 | CAGTTAGG | -0.0487
76 | GGCACTTA | 0.023
77 | AAATAGGG | -0.079
78 | ACCAGGGT | -0.205
79 | CAGAATGG | -0.00418
80 | GGGTAAAC | -0.0805
81 | GAACAGTA | -0.0158
82 | ACCTTGAG | -0.019
83 | CCGGCCCC | -0.3
84 | GTTATACA | 0.0621
85 | GTGAATCA | -0.018
86 | AACTGTAC | 0.0409
